Measurements taken from PMC3145648.
No constants are given. Whether binding was seen depends on the method and setting. In cells and extracts the contact can be indirect. Some binding calls cover weakened binding; strength is not graded here. Where a sequence is shown, tags or fusion partners need not be part of it.

Target: T1, MYC-HSP47 (mouse HSP47 with a MYC epitope before the RDEL sequence) (mouse) (UniProt P19324)
T1 sequence: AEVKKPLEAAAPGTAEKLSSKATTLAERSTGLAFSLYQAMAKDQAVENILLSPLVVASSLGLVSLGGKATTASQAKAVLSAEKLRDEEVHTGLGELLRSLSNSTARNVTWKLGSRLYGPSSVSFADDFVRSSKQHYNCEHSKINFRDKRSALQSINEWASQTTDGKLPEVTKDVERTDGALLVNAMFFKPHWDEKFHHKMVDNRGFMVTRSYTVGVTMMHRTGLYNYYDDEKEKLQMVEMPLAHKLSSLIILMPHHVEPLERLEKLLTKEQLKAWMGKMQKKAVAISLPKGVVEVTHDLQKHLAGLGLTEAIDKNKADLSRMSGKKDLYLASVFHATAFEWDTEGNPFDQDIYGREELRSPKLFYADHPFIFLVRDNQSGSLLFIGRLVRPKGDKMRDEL
Test: co-IP; lysates of HEK293T cells co-transfected with YFP-APP695 and MYC-HSP47; precipitated with anti-MYC antibodies and protein-G-sepharose overnight at 4°C, blotted with anti-GFP; lysis buffer 1% TritonX-100, 120 mM sodium chloride, 50 mM Tris-HCl pH 7.5

- binding: binds
Substance: YFP-tagged APP (YFP-APP695) (from UniProt P05067-4 18-695)
